Measurements from the supplement of paper PMC9135407.
Values joined by “and” are separate entries in the source; they are usually repeats but may differ in a detail not shown here. Identical values can stand only once. Counter-ions that a name gives are not always drawn. ± gives the standard deviation of the averaged measurements. This is one part of the list. Part of the spread comes from offsets between plates or batches.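 Assay uses culture-activated primary human stellate myofibroblasts; lipid droplet recovery indicates inactivation. Measured: proportion of Hoechst-counted cells over a plate-specific Bodipy cutoff, duplicate wells, DMSO and nortriptyline as per-plate negative and positive controls. A hit scores, control-normalized, above the plate's top-tenth-percentile nortriptyline wells or ranks among its three best wells. Final well concentrations not reported.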

Test system: primary human hepatic stellate cells (donor 1)
Experiment: percent Bodipy-positive cells; higher = more lipid droplet accumulation
Conditions: 48 h
Description: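 Primary lipid accumulation screen in primary human hepatic stellate cell myofibroblasts (donor 1, passage 8) in 384-well plates. 100 nL of library compound was pin-transferred into 30 µL medium in duplicate, and cells were treated for 48 h. The 'Scaled' score combines distance from plate baseline, toxicity and reproducibility penalties, and is normalised to nortriptyline (positive) and DMSO (negative) controls on each plate. A hit is defined as scaled >0.85 or among the top 3 wells per plate.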

[1] = library stock concentration: 80 uM
[2] = library stock concentration: 400 uM
[3] = library stock concentration: 2 mM
[4] = library stock concentration: 3.33 mM
[5] = library stock concentration: 10 mM
[6] = library stock concentration: 1 mM

Which results are given for `Cn1cnc(-c2cc3nccc(Oc4ccc(NC(=S)NC(=O)Cc5ccccc5)cc4F)c3s2)c1` [MGCD-265 analog]?
percent Bodipy-positive cells [1]: 8.41 ± 0.87%; percent Bodipy-positive cells [2]: 9.42 ± 4.5%; percent Bodipy-positive cells [3]: 11.5 ± 3%; percent Bodipy-positive cells [4]: 9.9 ± 2.3%; percent Bodipy-positive cells [5]: 15.2% and 34%

For `Cc1ccc(-c2ccc3c(ccc4sc5c(c43)NC[C@@H](C)NC5=O)n2)cn1`, which “percent Bodipy-positive cells” value [1] is on record?
The value was 12.4 ± 8.3%.

What about the “percent Bodipy-positive cells” value [2] of the same compound?
The value was 14.8 ± 4.1%.

And the “percent Bodipy-positive cells” value [3]?
The value was 65.1 ± 5.6%.

Which “percent Bodipy-positive cells” value [6] does the source give for `c1ccc2c(Cc3c[nH]c4ccccc34)c[nH]c2c1` [Diidolylmethane] here?
The value was 5.41 ± 1.7%.

With `Cc1sc(N)c(C(=O)c2cccc(C(F)(F)F)c2)c1C` as the compound, how does the “percent Bodipy-positive cells” value [5] read?
Its value is 8.96% and 7.41%.

`COc1ccc(OC)c2c(=S)c3ccccc3[nH]c12` was tested. Which “percent Bodipy-positive cells” value [5] did it give?
Its value is 6.41 ± 0.97%.

`COc1ccc(-n2[nH]c3c4c(ncc3c2=O)CCCCC4)cc1` was tested. Which “percent Bodipy-positive cells” value [5] did it give?
Its value is 9.16 ± 3%.

How did the “percent Bodipy-positive cells” value [1] turn out when `CCC(=O)N1CCN(c2ccc(-n3c(=O)ccc4cnc5ccc(-c6cnc7ccccc7c6)cc5c43)cc2C(F)(F)F)CC1` [Torin1] was run?
The value was 5.45 ± 0.84%.

And the “percent Bodipy-positive cells” value [2]?
The value was 6.36 ± 1.5%.

What about the “percent Bodipy-positive cells” value [3] of the same compound?
Its value is 14.1 ± 0.54%.

And the “percent Bodipy-positive cells” value [5]?
Its value is 27.3 ± 1.7%.

How did the “percent Bodipy-positive cells” value [5] turn out when `CO/N=C(\C(=O)N[C@@H]1C(=O)N2C(C(=O)OCOC(=O)C(C)(C)C)=C(/C=C\c3scnc3C)CS[C@H]12)c1csc(N)n1` [Cefditorin pivoxil] was run?
The value was 36.5 ± 16%.

With `CO/N=C(\C(=O)N[C@@H]1C(=O)N2C(C(=O)OCOC(=O)C(C)(C)C)=C(/C=C\c3scnc3C)CS[C@H]12)c1csc(N)n1` [Cefditoren Pivoxil] as the compound, how does the “percent Bodipy-positive cells” value [4] read?
The value was 16.4 ± 18%.

What about the “percent Bodipy-positive cells” value [5] of the same compound?
The value was 14 ± 4.5%.

For `CCCCCCCCCCCCCCCCC(=O)NCCO` [Heptadecanoyl Ethanolamide], which “percent Bodipy-positive cells” value [6] is on record?
Its value is 14.7 ± 9.6%.

With `O=C(OC[C@H]1O[C@@H](OC(=O)c2cc(O)c(O)c(OC(=O)c3cc(O)c(O)c(O)c3)c2)[C@H](OC(=O)c2cc(O)c(O)c(OC(=O)c3cc(O)c(O)c(O)c3)c2)[C@@H](OC(=O)c2cc(O)c(O)c(OC(=O)c3cc(O)c(O)c(O)c3)c2)[C@@H]1OC(=O)c1cc(O)c(O)c(OC(=O)c2cc(O)c(O)c(O)c2)c1)c1cc(O)c(O)c(OC(=O)c2cc(O)c(O)c(O)c2)c1` [Tannic acid] as the compound, how does the “percent Bodipy-positive cells” value [5] read?
The value was 41.4 ± 7.8%.

What does the source list for `COc1cc(C(=O)NC2CCN(C)CC2)ccc1Nc1ncc2c(n1)N(C1CCCC1)C(C)CC(=O)N2C` (configuration not stated)?
percent Bodipy-positive cells [1]: 11.1 ± 2.9%; percent Bodipy-positive cells [2]: 15.4 ± 7.1%; percent Bodipy-positive cells [3]: 23.8 ± 0.61%; percent Bodipy-positive cells [5]: 52.8 ± 5.1%

What does the source list for `N=C(N)c1ccc(OCCCCCOc2ccc(C(=N)N)cc2)cc1` [Pentamidine]?
percent Bodipy-positive cells [4]: 14.3 ± 3.4%; percent Bodipy-positive cells (library stock concentration: 5.9 mM): 13.2 ± 0.44%; percent Bodipy-positive cells [5]: 45.8 ± 0.76%

`N=C(N)c1ccc(OCCCCCOc2ccc(C(=N)N)cc2)cc1` [Pentamidine isethionate] was tested. Which “percent Bodipy-positive cells” value did it give?
Its value is 25.6 ± 6.2%.

Which “percent Bodipy-positive cells” value [6] does the source give for `CCCCCCCCCCCCCCCCCCCCCC(=O)NCCO` [Docosanoyl Ethanolamide] here?
The value was 6.92 ± 3.5%.

For `Cn1c(NCCN(CCO)CCCc2ccc([N+](=O)[O-])cc2)cc(=O)n(C)c1=O` [Nifekalant HCl], which “percent Bodipy-positive cells” value (library stock concentration: 4.9 mM) is on record?
Its value is 9.8 ± 0.81%.

How did the “percent Bodipy-positive cells” value [5] turn out when `Cn1c(NCCN(CCO)CCCc2ccc([N+](=O)[O-])cc2)cc(=O)n(C)c1=O` was run?
Its value is 8.71 ± 3.9%.
